Experimental data: PubChem BioAssay AID504793 (Drosophila RNAi Screening Center, 2011)

- Aim: 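Whole-genome screen for parts of the DNA damage checkpoint at G2/M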 (primary screen)
- Cells: Drosophila S2R+ cells
- Reagent: long dsRNA against Drosophila genes, about 0.25 µg dsRNA per well
- Duration: 4 days of dsRNA, then 4 hours of drug before read-out
- Treatment: doxorubicin 0.5 µM for 4 hours to cause double-strand breaks, in cells also given a low, harmless dose of dsRNA against nbs to sensitise the assay
- Detection: 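Mitotic index as the number of phospho-histone H3-positive cells in each well following doxorubicin, given as raw counts without normalisation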
- Direction: mitotic cells: higher = more cells in mitosis, weaker G2 arrest
- Rule for the call: 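Genes are called active only when high mitotic counts were reproduced with independent dsRNAs and mitosis was checked for delay without damage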
- Calls: active = confirmed in follow-up tests; inactive = not confirmed
The screen tested about 23,000 reagents; below is an unselected part of those that have a named target and a result. Over the whole deposit, 62 (0.27%) got an active call. 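Calls come from follow-up tests whose scores are not deposited, so confirmed genes may have low counts here; counts are not normalised per plate.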 Raw values are not corrected between plates.

Sema2b (GeneID 246538) [DRSC05609]
- mitotic cells, replicate 1: 15
- call: inactive

Sema2b (GeneID 246538) [DRSC06867]
- mitotic cells, replicate 1: 3
- call: inactive

Sema2b (GeneID 246538) [DRSC24672]
- mitotic cells, replicate 1: 8
- call: inactive

CG32379 (GeneID 326211) [DRSC10318]
- mitotic cells, replicate 1: 6
- call: inactive

wde (GeneID 36133) [DRSC05955]
- mitotic cells, replicate 1: 10
- call: inactive

CG9581 (GeneID 33017) [DRSC20695]
- mitotic cells, replicate 1: 10
- call: inactive

CG9581 (GeneID 33017) [DRSC22247]
- mitotic cells, replicate 1: 2
- call: inactive

CG31647 (retired record) (GeneID 318869) [DRSC21903]
- mitotic cells, replicate 1: 7
- call: inactive

CG31647 (retired record) (GeneID 318869) [DRSC24136]
- mitotic cells, replicate 1: 11
- call: inactive

CG8321 (GeneID 36287) [DRSC07148]
- mitotic cells, replicate 1: 5
- call: inactive

CG17260 (GeneID 33519) [DRSC00497]
- mitotic cells, replicate 1: 5
- call: inactive

CG17260 (GeneID 33519) [DRSC29415]
- mitotic cells, replicate 1: 2
- call: inactive

Pxd (GeneID 2768671) [DRSC16805]
- mitotic cells, replicate 1: 9
- call: inactive

CG32809 (GeneID 31121) [DRSC18507]
- mitotic cells, replicate 1: 8
- call: inactive

CG32809 (GeneID 31121) [DRSC18562]
- mitotic cells, replicate 1: 9
- call: inactive

CG32809 (GeneID 31121) [DRSC18592]
- mitotic cells, replicate 1: 4
- call: inactive

Looked up above.
Under “mitotic cells, replicate 1”, CG32809 (GeneID 31121) [DRSC18592] shows 4
CG17260 (GeneID 33519) [DRSC00497], call = inactive
